Binding screen against folded nucleic acids

Source: the ROBIN nucleic acid binder screens (doi:10.1002/anie.202211358).

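Compounds were printed on reactive glass slides in duplicate spots, a dye-labelled oligonucleotide was laid over them, and the fluorescence left after washing was read. For the PreQ1, TPP and SAM-II riboswitches the laboratory earlier reported (doi:10.1038/s41467-019-09493-3) 1 µM RNA, 2 h, and a rule that included a mean Z-score above 3 (spot signal-to-noise against the whole library), a score well above that on a control array, and duplicate spots agreeing (coefficient of variation under 100). The data file gives only the calls; its cut-offs may differ, and compounds hitting several targets are kept. These are primary screening calls, not affinities; a compound without a hit may have attached poorly or may still bind in solution.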
“hit” means called a hit, “none” means screened and not called a hit.
The compounds are a random part of those screened.
A target missing from an entry has no call listed here.
A dash means that no call is listed here.

Targets (5′ to 3′):
TPP: TPP riboswitch RNA three-way junction, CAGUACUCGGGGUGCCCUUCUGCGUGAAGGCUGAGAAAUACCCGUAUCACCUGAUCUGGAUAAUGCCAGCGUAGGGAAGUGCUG. About 160 hits among about 24,000 compounds.
PreQ1: PreQ1 riboswitch RNA pseudoknot, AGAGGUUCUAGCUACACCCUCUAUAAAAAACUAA. From B. subtilis. About 170 hits among about 24,000 compounds.
SAM-II: SAM-II riboswitch RNA pseudoknot, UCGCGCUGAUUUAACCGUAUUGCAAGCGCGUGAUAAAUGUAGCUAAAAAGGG. About 200 hits among about 21,000 compounds.

SMILES,TPP,PreQ1,SAM-II
CC(=O)OCCNc1nc(-c2ccccc2)nc2ccccc12,none,none,none
CSc1ccc(C2C(C#N)=C(N)Oc3cc(O)ccc32)cc1 (configuration not stated),none,none,none
COc1cc(NS(=O)(=O)c2ccc(N)cc2)ncn1,none,none,none
Nc1ncnc2ccccc12,none,none,none
COc1cccc(OCC(O)CNC(=O)CSc2nnc(C)s2)c1 (configuration not stated),none,none,none
COc1ccc(C=Cc2cc(OC)c(OC)c(OC)c2)cc1NC(=O)[C@H](N)CO,none,none,none
CNc1ccccc1C(=O)OCC(=O)c1ccc(-c2ccccc2)cc1,none,none,none
COc1ccc(-c2noc(CNc3ccc(F)c(Cl)c3)n2)cc1,none,none,none
O=C(O)CNC(=O)c1c(O)c2ccccc2n(Cc2ccccc2)c1=O,none,none,none
OC(Cc1ccccc1)C1CCN(c2ccncc2)CC1 (configuration not stated),none,none,none
CCc1nc(N)nc(NCC(O)c2cc(OC)cc(OC)c2)c1C (configuration not stated),none,none,none
Cc1cc(NCC(=O)N2CCN(c3ccc(F)cc3)CC2)n2nc(-c3cccnc3)nc2n1,none,hit,-
OCCn1ncnc1CCN1CCCCCCC1,none,none,none
CCCN1CCC(NCC(=O)Nc2cc(C)ccc2OC)CC1,none,none,none
COc1cc2c(cc1OC)C(c1cccnc1)NCC2 (configuration not stated),none,none,none
O=c1cc(-c2ccccc2)oc2cc(O)c(O)c(O)c12,none,none,none
CC(O)CSc1nc2c(c(=O)[nH]c(=O)n2C)n1C(C)C (configuration not stated),none,none,none
NC(=O)C1=C(NCCO)c2ccccc2S1(=O)=O,none,none,-
CCCOC1CCCN(C(=O)c2cn(CCN3CCNCC3)nn2)C1 (configuration not stated),none,none,none
Cc1ccc(Nc2nc(C)cc(N3CCN(S(=O)(=O)c4ccc5c(c4)OCCO5)CC3)n2)cc1,none,none,-
CCSc1nc(=S)cc(C)[nH]1,none,none,none
c1csc(CCNC2CCOC3(CCOCC3)C2)c1 (configuration not stated),none,none,none
NCCSC1CC(=O)N(c2cccc(F)c2)C1=O (configuration not stated),none,none,none
C[C@@H](O[C@@H]1OCCN(Cc2nc(=O)[nH][nH]2)[C@@H]1c1ccc(F)cc1)c1cc(C(F)(F)F)cc(C(F)(F)F)c1,none,none,none
CCCCC(=O)C1=C(NCCc2c(C)[nH]c3ccc(OC)cc23)CCCC1=O,none,none,none
Cn1c(-c2ccc(F)cc2)cnc1NCc1c(F)cccc1Cl,none,none,none
CCn1nc(C)c(NC(=O)CN2C[C@H](O)C[C@H]2C(=O)OC)c1C,none,none,none
Cc1[nH]c2ccc(CNC(=O)[C@]34CC[C@](C)([C@@H](O)C3)C4(C)C)cc2c1C,none,none,none
Cc1ccccc1Nc1c([N+](=O)[O-])ccc2c1=NC1(CCCCC1)N=2,none,none,none
O=S(=O)(c1ccc(F)cc1)N(CCO)CC(O)Cn1c2ccccc2c2ccccc21 (configuration not stated),none,none,none
O=S1(=O)CC(O)C(N2CCN(CCOc3ccc(Cl)cc3)CC2)C1 (configuration not stated),none,none,none
Cc1ccsc1-c1nc(CN2[C@@H]3CC[C@H]2C[C@@H](O)C3)c(C)o1,none,none,none
Cc1ccccc1OCC1CCCN(Cc2cnc(N)nc2)C1 (configuration not stated),none,none,none
COc1ccc(CC2SC(=O)NC2=O)cc1C(=O)NCc1ccc(C(F)(F)F)cc1 (configuration not stated),none,none,none
CCC(O)c1nc2ccccc2n1CCOc1cc(C)cc(C)c1 (configuration not stated),none,none,-
CCOc1ccc2[nH]c(C(=O)O)c(CCN)c2c1,none,none,none
Cc1c(S(=O)(=O)c2ccc(F)cc2)c(N)n(Cc2ccccn2)c1C,none,none,none
O=C(Nc1sc2c(c1C(=O)NCC(O)CO)CCCC2)c1ccccc1 (configuration not stated),none,none,none
N[C@H]1CN(C(=O)c2cnc(C3CC3)[nH]c2=O)C[C@@H]1C1CC1,none,none,none
CCOc1ccc(-c2nc3cc(N)ccc3o2)cc1,none,none,none
Cc1cn2c(-c3cn[nH]c3)cnc2c(Nc2ccc(C(=O)N3CCNCC3)cc2F)n1,none,none,none
O=C(CCn1nnc(-c2ccccc2)n1)N1CCC2(CCNCC2)CC1,none,none,none
OCCn1nc(C2(c3ccccc3)CC2)nc1CCCN1CCCC1,none,none,none
Cc1cc(N2CCN(CCO)CC2)n2nc(-c3cccc(Cl)c3)c(C)c2n1,none,none,-
Cc1c(C#N)c(N)n(CCN(C)C)c1C,none,none,none
CCOC(=O)N1CCC(NCCc2nnc(N)s2)CC1,none,none,none
COc1ccc(C2CC(=O)C=C(Nc3sc4c(c3C#N)CCCC4)C2)cc1 (configuration not stated),none,none,none
CSc1ccc(CN(CCO)C(=O)CCc2ccc(O)cc2)cc1,none,none,none
Cc1cccc(-n2nnc(C(=O)NCCO)c2N)c1,none,none,none
COc1ccc(NCc2n[nH]c(-c3ccco3)n2)cc1,none,none,none
COCC(C)NCCn1[nH]c(=O)ccc1=O (configuration not stated),none,none,none
CC(C)C1C=CCN1C(=O)C1(Oc2ccc(Cl)cc2)CCNCC1 (configuration not stated),none,none,none
CCN1C[C@H](C)n2c(c(O)c3c(=O)n(Cc4ccc(F)c(Cl)c4)nc(C(=O)NC)c32)C1=O,none,none,none

Repeated from the top, 4 entries:

* CC(=O)OCCNc1nc(-c2ccccc2)nc2ccccc12 | TPP: none; PreQ1: none; SAM-II: none
* CSc1ccc(C2C(C#N)=C(N)Oc3cc(O)ccc32)cc1 (configuration not stated) | TPP: none; PreQ1: none; SAM-II: none
* COc1cc(NS(=O)(=O)c2ccc(N)cc2)ncn1 | TPP: none; PreQ1: none; SAM-II: none
* Nc1ncnc2ccccc12 | TPP: none; PreQ1: none; SAM-II: none